The values below come from the supplement of paper PMC12067093, “Discovery and optimisation of a covalent ligand for TRIM25 and its application to targeted protein ubiquitination” (Chemical Science, 2025).

Protein sequences, listed by entry. Tags and fused reporters are not part of them. Lines headed by an entry give the natural chain unless they say otherwise; changes in a name come on top.
UniProt Q7Z2W4: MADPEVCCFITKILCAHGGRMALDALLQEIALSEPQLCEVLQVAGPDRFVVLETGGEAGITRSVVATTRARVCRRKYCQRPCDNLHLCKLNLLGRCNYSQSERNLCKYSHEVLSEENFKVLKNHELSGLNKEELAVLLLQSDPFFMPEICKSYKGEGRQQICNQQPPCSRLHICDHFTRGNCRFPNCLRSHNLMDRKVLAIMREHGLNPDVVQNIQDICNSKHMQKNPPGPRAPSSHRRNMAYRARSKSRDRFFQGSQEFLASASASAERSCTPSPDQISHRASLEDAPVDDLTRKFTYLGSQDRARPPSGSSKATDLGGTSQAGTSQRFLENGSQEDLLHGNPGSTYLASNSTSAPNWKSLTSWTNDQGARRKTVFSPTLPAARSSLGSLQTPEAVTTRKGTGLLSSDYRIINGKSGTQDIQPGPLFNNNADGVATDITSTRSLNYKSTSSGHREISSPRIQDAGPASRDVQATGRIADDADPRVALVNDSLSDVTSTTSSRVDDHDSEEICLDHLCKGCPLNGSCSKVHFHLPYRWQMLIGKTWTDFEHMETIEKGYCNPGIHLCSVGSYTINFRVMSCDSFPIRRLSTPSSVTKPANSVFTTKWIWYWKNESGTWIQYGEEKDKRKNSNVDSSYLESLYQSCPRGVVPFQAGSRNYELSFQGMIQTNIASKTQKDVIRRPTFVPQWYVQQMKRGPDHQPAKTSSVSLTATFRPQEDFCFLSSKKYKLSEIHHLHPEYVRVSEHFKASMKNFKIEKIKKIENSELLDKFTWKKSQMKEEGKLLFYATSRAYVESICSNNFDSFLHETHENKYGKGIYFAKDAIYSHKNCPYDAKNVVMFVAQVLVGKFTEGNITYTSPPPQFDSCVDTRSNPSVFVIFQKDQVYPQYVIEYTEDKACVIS
UniProt Q9HAV4: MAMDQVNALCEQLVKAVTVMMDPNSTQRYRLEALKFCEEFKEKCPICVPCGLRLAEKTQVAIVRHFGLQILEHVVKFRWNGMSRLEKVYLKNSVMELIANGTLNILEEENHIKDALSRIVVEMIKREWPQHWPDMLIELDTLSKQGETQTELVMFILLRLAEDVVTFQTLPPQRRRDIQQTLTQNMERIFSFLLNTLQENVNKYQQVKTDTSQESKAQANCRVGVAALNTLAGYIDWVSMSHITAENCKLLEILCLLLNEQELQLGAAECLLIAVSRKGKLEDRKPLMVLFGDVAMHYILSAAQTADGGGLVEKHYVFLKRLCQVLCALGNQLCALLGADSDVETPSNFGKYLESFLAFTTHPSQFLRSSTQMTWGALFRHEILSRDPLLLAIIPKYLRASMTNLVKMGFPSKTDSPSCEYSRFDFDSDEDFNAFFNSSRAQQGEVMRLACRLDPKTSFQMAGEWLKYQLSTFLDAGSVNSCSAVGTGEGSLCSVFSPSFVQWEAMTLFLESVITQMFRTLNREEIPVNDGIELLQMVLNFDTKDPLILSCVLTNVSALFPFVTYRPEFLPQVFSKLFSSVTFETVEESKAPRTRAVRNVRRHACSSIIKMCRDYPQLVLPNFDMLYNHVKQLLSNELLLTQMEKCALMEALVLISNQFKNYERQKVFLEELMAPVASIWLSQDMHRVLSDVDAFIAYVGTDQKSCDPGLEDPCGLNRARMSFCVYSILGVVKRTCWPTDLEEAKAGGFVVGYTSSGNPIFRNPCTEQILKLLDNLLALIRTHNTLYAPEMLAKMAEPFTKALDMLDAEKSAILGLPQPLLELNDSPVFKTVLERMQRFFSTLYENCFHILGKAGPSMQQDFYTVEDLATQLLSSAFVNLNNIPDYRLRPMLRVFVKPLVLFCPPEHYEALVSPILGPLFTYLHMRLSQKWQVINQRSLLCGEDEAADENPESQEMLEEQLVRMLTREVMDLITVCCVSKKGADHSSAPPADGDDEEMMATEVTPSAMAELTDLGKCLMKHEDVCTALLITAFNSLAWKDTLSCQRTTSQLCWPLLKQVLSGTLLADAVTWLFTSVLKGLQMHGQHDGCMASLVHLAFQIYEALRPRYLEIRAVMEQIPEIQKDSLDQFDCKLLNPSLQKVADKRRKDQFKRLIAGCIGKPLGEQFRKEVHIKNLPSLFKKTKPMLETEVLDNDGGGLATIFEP
UniProt Q96QU8: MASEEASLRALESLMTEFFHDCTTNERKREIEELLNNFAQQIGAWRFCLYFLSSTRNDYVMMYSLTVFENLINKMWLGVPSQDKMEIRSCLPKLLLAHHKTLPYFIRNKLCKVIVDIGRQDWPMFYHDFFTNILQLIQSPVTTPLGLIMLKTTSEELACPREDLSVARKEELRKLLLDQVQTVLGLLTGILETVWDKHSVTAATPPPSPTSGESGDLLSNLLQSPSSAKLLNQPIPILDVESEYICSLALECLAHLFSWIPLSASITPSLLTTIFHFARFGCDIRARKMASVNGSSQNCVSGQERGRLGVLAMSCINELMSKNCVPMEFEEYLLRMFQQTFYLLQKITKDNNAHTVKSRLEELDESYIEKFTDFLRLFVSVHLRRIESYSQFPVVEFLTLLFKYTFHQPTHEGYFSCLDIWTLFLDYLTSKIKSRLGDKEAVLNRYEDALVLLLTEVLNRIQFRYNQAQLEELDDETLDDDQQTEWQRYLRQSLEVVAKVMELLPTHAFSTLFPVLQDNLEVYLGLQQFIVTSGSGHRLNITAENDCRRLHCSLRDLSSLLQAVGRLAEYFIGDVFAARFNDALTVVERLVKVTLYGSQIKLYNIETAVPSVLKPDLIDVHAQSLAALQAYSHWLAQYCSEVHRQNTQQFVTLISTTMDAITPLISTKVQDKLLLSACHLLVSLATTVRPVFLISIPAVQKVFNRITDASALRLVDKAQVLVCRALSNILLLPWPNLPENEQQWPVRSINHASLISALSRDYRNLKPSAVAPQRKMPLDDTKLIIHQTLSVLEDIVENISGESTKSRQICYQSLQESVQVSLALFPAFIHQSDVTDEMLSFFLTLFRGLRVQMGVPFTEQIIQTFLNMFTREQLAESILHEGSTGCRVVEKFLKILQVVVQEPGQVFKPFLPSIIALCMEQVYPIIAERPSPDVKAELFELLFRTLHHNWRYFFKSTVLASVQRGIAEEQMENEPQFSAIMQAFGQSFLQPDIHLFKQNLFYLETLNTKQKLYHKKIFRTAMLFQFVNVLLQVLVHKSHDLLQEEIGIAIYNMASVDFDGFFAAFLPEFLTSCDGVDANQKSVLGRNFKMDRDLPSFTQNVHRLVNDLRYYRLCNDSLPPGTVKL
UniProt P13010: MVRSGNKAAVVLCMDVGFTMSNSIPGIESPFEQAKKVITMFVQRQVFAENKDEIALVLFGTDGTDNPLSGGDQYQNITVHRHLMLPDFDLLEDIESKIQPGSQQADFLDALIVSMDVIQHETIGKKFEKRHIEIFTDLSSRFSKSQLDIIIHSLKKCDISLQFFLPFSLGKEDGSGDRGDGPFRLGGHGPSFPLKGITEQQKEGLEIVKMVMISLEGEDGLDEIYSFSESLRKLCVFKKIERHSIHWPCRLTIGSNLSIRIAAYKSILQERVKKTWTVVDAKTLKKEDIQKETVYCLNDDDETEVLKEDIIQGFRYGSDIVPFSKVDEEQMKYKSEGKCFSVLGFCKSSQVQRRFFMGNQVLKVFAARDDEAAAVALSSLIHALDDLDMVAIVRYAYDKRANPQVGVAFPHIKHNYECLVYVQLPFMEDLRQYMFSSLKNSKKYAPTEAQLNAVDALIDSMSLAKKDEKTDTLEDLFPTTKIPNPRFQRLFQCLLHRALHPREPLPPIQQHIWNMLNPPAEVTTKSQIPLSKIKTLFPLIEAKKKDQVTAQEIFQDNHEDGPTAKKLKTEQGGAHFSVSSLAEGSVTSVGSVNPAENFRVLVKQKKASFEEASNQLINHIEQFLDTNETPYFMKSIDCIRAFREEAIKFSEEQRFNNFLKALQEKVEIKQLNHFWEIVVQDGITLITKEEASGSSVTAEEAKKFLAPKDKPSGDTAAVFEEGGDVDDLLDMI
UniProt Q9UGR2: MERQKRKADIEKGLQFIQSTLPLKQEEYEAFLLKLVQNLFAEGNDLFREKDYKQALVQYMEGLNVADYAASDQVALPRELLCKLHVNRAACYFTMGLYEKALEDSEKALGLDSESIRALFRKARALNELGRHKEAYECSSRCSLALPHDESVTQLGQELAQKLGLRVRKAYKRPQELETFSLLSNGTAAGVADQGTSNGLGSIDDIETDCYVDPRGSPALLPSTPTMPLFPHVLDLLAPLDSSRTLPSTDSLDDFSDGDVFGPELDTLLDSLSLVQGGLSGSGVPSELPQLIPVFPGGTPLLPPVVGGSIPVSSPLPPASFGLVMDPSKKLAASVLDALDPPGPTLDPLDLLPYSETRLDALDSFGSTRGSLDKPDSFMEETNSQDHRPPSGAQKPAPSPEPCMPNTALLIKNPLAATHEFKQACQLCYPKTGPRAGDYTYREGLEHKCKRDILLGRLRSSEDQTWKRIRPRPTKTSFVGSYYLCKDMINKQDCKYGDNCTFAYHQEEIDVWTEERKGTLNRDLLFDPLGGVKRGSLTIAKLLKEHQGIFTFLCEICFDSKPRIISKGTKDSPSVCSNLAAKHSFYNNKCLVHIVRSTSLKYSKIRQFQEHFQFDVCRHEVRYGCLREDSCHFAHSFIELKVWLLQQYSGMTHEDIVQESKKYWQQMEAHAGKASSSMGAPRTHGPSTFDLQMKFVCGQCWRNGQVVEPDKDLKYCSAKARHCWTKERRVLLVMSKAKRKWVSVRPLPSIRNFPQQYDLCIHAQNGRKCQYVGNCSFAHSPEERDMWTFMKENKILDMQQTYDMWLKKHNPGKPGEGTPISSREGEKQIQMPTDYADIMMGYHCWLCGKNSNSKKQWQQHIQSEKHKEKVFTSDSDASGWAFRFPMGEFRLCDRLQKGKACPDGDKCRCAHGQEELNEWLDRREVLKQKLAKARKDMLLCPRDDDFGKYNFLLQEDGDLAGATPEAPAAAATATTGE
UniProt Q9H6S0: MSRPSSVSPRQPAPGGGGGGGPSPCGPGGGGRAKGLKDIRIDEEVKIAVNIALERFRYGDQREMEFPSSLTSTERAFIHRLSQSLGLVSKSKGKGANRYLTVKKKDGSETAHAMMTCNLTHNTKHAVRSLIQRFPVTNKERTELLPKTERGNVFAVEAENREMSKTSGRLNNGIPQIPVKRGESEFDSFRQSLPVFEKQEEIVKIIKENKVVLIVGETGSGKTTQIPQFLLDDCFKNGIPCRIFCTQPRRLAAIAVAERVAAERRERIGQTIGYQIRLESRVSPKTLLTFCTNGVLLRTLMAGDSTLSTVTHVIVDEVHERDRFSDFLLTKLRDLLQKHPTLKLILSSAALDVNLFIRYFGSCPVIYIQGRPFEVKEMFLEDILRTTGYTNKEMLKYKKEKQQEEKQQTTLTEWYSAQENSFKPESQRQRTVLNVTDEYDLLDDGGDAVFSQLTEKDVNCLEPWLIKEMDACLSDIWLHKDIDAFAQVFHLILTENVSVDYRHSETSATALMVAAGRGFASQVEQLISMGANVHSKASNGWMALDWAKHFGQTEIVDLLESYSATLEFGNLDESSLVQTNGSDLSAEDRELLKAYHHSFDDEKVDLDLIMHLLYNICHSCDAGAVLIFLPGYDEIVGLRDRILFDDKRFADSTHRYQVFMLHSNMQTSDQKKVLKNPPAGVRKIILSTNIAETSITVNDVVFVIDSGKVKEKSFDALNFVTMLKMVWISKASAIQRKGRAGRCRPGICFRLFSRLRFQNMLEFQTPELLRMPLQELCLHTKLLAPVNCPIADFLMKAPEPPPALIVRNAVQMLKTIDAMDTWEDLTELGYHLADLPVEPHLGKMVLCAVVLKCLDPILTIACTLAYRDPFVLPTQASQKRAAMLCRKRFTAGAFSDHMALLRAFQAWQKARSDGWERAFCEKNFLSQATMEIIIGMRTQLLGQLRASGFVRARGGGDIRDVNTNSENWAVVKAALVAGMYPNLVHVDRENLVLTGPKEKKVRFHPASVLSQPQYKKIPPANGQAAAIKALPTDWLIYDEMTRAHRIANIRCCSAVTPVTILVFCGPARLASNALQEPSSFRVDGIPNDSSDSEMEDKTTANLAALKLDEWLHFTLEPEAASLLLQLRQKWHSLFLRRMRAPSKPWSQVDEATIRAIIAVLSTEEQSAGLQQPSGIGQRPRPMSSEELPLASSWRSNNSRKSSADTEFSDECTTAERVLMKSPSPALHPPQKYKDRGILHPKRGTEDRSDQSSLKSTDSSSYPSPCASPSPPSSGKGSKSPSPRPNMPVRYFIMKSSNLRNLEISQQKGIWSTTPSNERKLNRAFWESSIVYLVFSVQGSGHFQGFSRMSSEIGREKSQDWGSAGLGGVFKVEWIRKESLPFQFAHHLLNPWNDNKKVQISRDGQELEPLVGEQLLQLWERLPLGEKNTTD

Compound in the experiment: CC1Cc2ccccc2N1C(=O)C1CCCN(C1)C(=O)CCl (mixture of isomers) [TRIM25 ligand 11 (diastereomer mixture)]
Description: probe-labelled cysteine peptide fold change vs DMSO (competition) (log2 fold change); higher = less target engagement (more negative = stronger competition). The note with it: THP-1, incubation time: 4 h.

This is one part of the list.
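Note: competitive chemoproteomic profiling in live THP-1 cells with an iodoacetamide desthiobiotin (IA-DTB) probe, comparing probe-labelled peptide intensities in compound-treated cells against DMSO-treated controls.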

Consider “ZC3HAV1_Q7Z2W4_721_TSSVSLTATFRPQEDFCFLSSK (UniProt Q7Z2W4)”, for which the “probe-labelled cysteine peptide fold change” value is -0.066 (10 µM) and -0.0616 (50 µM).
Take “YIPF4_Q9BSR8_94_CVLMPMPSLGFNR (UniProt Q9BSR8)”: the “probe-labelled cysteine peptide fold change” value runs as follows: (10 µM) 0.032; (50 µM) -0.177.
The like results for “YARS_P54577_501_ISEECIAQWK (UniProt P54577)” were, in that order, 0.0329 and -0.0947.
The like results for “ZCCHC8_Q6NZY4_607_KSEAGHASSPDSEVTSLCQK (UniProt Q6NZY4)” were, in that order, 0.0469 and -0.328.
The like results for “ZBTB7A_O95365_490_DGCNGVPSR (UniProt O95365)” were, in that order, -0.0599 and 0.0996.
For the target “XPO5_Q9HAV4_736_TCWPTDLEEAK (UniProt Q9HAV4)”, the “probe-labelled cysteine peptide fold change” value is, setting by setting: (10 µM) -0.0191; (50 µM) 0.136.
The like results for “XPO6_Q96QU8_547_LNITAENDCR (UniProt Q96QU8)” were, in that order, 0.178 and -0.0408.
As to “XRCC5_P13010_493_LFQCLLHR (UniProt P13010)”, the “probe-labelled cysteine peptide fold change” value is -0.143 (10 µM) and 0.00588 (50 µM).
Taken in the same sequence, the figures for “XPO7_Q9UIA9_123_LGWFDCQK (UniProt Q9UIA9)” were -0.211 and 0.0544.
For the target “ZC3H7A_Q8IWR0_572_LLQEHLGEFIFLCEK (UniProt Q8IWR0)”, the “probe-labelled cysteine peptide fold change” value is 0.0463 (10 µM) and 0.0436 (50 µM).
Taken in the same sequence, the figures for “XPO6_Q96QU8_886_EQLAESILHEGSTGCR (UniProt Q96QU8)” were 0.18 and 0.152.
Taken in the same sequence, the figures for “ZFAND1_Q8TCF1_64_LKTDQHTSYPCSFK (UniProt Q8TCF1)” were -0.0624 and -0.388.
“ZC3H7B_Q9UGR2_576_DSPSVCSNLAAK (UniProt Q9UGR2)”: the “probe-labelled cysteine peptide fold change” value was 0.0652 (10 µM) and 0.0882 (50 µM).
The like results for “ZC3H7B_Q9UGR2_700_FVCGQCWR (UniProt Q9UGR2)” were, in that order, 0.0801 and 0.0759.
For “YTHDC2_Q9H6S0_25_QPAPGGGGGGGPSPCGPGGGGR (UniProt Q9H6S0)”, the “probe-labelled cysteine peptide fold change” value reads like this: (10 µM) -0.253; (50 µM) -0.342.
